This note sets out measurements from paper PMC8327344, “Regulation of a pentameric ligand-gated ion channel by a semiconserved cationic lipid-binding site” (The Journal of Biological Chemistry, 2021).

Structures are written as SMILES.

In this experiment the test system is wild-type (WT) ELIC. Kind of experiment: FlexStation membrane potential dye assay, GABA-elicited responses. The following applies: HEK293 cells transfected with WT ELIC. The class given is cell-based, D. didantii. As to the method:
These methods were similar to those previously described ([55]). Briefly, ELIC cDNA was transfected into HEK293 cells, and these were then grown for 2 to 3 days in a 96-well plate. Then blue fluorescent membrane potential dye (Molecular Devices Ltd) diluted in Flex buffer (10 mM HEPES, 115 mM NaCl, 1 mM KCl, 1 mM CaCl2, 1 mM MgCl2, 10 mM glucose, pH 7.4) was added to each well. After incubation at 37 °C for 30 min, plates were placed in a FlexStation (Molecular Devices Ltd) and fluorescence measured every 2 s for 120 s. […] Concentration–response data were fitted to the four-parameter logistic equation, F = Fmin + (Fmax − Fmin)/(1 + 10^log(EC50-[A])∗^nH), where [A] is the concentration of agonist, nH is the Hill coefficient, and Fmax and Fmin are the maximal and minimal fluorescence levels for each dataset, using Prism software (GraphPad). WT and mutant responses were compared using an ANOVA test followed by Dunnett’s multiple comparison test.

As usually defined, the pEC50 is the EC50 on a negative log10 scale, so that one unit is a factor of ten. High values mean a low EC50, low ones a high EC50. What is called EC50 is the concentration needed to bring the measured effect to its halfway point. Consider `NCCCC(=O)O` [GABA], for which the pEC50 is given as 2.96 ± 0.20. The EC50 (read-out: GABA EC50-value) amounted to 1100 µM.
